{"source": "patent US20170327786A1", "about": "(Biogen MA Inc., priority 2014, published 2017)", "tested_on": "Cell Line B", "assay": "Fed-batch culture of Cell Line B with hypotaurine feed medium", "format": "cell-based", "conditions": "concentration in the bioreactor, 8 mM hypotaurine feed", "protocol": "The control feed medium contained 0 mM hypotaurine. The hypotaurine feed medium contained 8 mM hypotaurine. […] The concentration of hypotaurine in the bioreactor on Day 16 was approximately 2.7 mM. […] Initial cell density was one million cells (1e6). The effects of hypotaurine were evident starting on Day 10.", "data": [{"molecule": "NCCS(=O)O", "note": "[Hypotaurine, hypotaurine]", "values": [{"measurement": "Day 16 Hypotaurine Conc.", "result": 3.18, "unit": "mM"}, {"measurement": "Day 16 Hypotaurine Conc.", "setting": "listed as hypotaurine", "result": "approximately 2.7 mM"}]}]}
